Measurements as given in paper PMC4557955.

tested on: BPs gp33103 repressor (short, prophage-encoded form) (Mycobacteriophage BPs); assay: EMSA; conditions: EMSA: 20 mM Tris pH 7.5, 10 mM EDTA, 25 mM NaCl, 10 mM spermidine, 1 mM DTT, 1 ug calf thymus DNA in 10 ul, room temperature 30 min, 5% native gel; recombinant protein; label: 5' 32P

Row | Sequence | binding result
1 | ACCGACGCGACATATGTCGACGCTTGACGACATATGTCGCAGCCT (double strand) [2 half sites 8 bp apart] | binds
2 | CACCGACGAAGTGCCACGATACTGACGACATATGTCGCAGCCTGG (double strand) [left half site ablated (5 bp apart)] | binds
3 | CACCGACGCGACATATGTCGACTGAAAGTGCCACGATCAGCCTGG (double strand) [right half site ablated (5 bp apart)] | binds
4 | CACCGACGCGACATATGTCGACTGACGACATATGTCGCAGCCTGG (double strand) [2 half sites 5 bp apart] | binds
5 | GCATTTTCCAATAGACGACATTCGCGCCTATGTTGGTGCACA (double strand) [O61-L] | binds more weakly
6 | GCATTTTCCAATAGAGGACATATGCGGCTATGTTGGTGCACA (double strand) [O6-R] | binds more weakly
7 | GCATTTTCCAATAGATGACACTTGTCGCTATGTTGGTGCACA (double strand) [O55-R] | binds more weakly

The exact form of at least one protein or probe is not confirmed. A weaker result is weaker than the reference pair of the same experiment.
